According to PubChem BioAssay AID2685 (National Center for Advancing Translational Sciences (NCATS), 2010):
This is one part of the list. These are further read-outs of the screen, such as a control signal, another cell line or another target. No call is given for them. Most of these compounds were active or inconclusive in the main read-out, so they are no random draw. Potencies come from curve fits of mixed quality, noted in brackets.

Test: qHTS Assay for Lipid Storage Modulators in Drosophila S3 Cells;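 as to cell number change: cells counted by Cell Tracker Red CMTPX staining in the red channel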
Conditions: BODIPY lipid droplet fluorescence, 18-24 h; for cell number change: measured here: cell count max response, cells fed with added oleic acid
Procedure, shortened: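 Drosophila S3 cells got compounds at several concentrations plus oleic acid (400 uM solution). Laser-scanning cytometry with 488 nm excitation read lipid droplets at 500-530 nm and cells at 575-640 nm. Percent activity was relative to 20 uM Triacsin C.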

[1] = measured here: lipid fluorescence (Fed channel) AC50, cells fed with added oleic acid
[2] = measured here: cell number channel AC50, cells fed with added oleic acid

Cn1c(=O)c2c(nc(Br)n2CCSc2nc3ccccc3o2)n(C)c1=O
cell number change: -15.9% | AC50 [1]: 0.146 µM [rising, full curve, poor fit]

CCCCCn1cnnc1SCC(=O)c1c(N)n(C2CC2)c(=O)[nH]c1=O
AC50 [2]: 6.51 µM [rising, partial curve]

C/C(=C\c1ccc(C)o1)C(=O)c1c(C)cc(C)[nH]c1=O
cell number change: -0.16% | AC50 [1]: 0.291 µM [rising, full curve, poor fit]

FC(F)(F)c1cnc(-c2cnc(-c3cccnc3)nc2)c(Cl)c1
cell number change: -18.2% | AC50 [2]: 6.51 µM [rising, single point] | AC50 [1]: 29.1 µM [falling, single point]

O=C(Oc1ccccc1N1C(=O)C2CCCCC2C1=O)c1ccccc1F (stereo not drawn)
cell number change: -1.63% | AC50 [1]: 0.651 µM [rising, partial curve, poor fit]

O=C(CSc1nnnn1-c1cccc(Cl)c1)Nc1ccc2c(c1)CCC2
cell number change: -58.3% | AC50 [2]: 4.61 µM [falling, partial curve] | AC50 [1]: 5.17 µM [falling, partial curve]

N#Cc1c(NC(=O)CN2CCCCC2)sc2c1CCC2
cell number change: 36.9% | AC50 [2]: 29.1 µM [rising, single point]

CC(C)n1c(SCC(N)=O)nc2c1c(=O)[nH]c(=O)n2C
cell number change: 20.9% | AC50 [1]: 29.1 µM [rising, partial curve, poor fit]

COc1cc(NC(=O)CCN2CCN(c3ccccc3F)CC2)cc(OC)c1
cell number change: 41.7% | AC50 [2]: 2.59 µM [rising, full curve, poor fit] | AC50 [1]: 4.11 µM [rising, partial curve, poor fit]

CCn1c(CSc2nc3ccccc3s2)nc2ccccc21
cell number change: 44.6% | AC50 [2]: 9.2 µM [rising, partial curve, poor fit]

COc1cc(CCC(=O)Nc2cc(C)cc(C)c2)cc(OC)c1OC
cell number change: 2.76% | AC50 [1]: 29.1 µM [rising, single point]

CC(OC(=O)Cc1n[nH]c(=O)c2ccccc12)C(=O)Nc1ccccc1[N+](=O)[O-] (stereo not drawn)
cell number change: 21% | AC50 [1]: 0.731 µM [falling, partial curve, poor fit]

O=C1CCc2cc(NS(=O)(=O)c3ccccc3)cc3c2N1CCC3
cell number change: 37.3% | AC50 [2]: 25.9 µM [rising, single point]

O=C(Nc1ccc(Cl)cc1Cl)C1CCCO1 (stereo not drawn)
cell number change: 7.75% | AC50 [1]: 29.1 µM [rising, single point]

CCOC(=O)[C@@H]1[C@H]2COc3cc(OC)ccc3[C@@H]2N2C(=O)N(c3ccc(Br)cc3)C(=O)[C@@]12C
cell number change: 9.88%

O=C(CN1CCCCC1CO)c1ccc(OC(F)F)cc1 (stereo not drawn)
cell number change: -43.6% | AC50 [2]: 16.4 µM [falling, single point]

O=S1(=O)CCN2C(c3ccco3)=CSC2=N1
cell number change: 2.19% | AC50 [1]: 6.51 µM [falling, single point]

Cc1ccc(NNC(=O)c2c(C)noc2C)cc1Cl
AC50 [1]: 2.59 µM [rising, partial curve]

Cc1ccc(SCCC(=O)OCC(=O)Nc2ncc(Cl)cc2Cl)cc1
cell number change: -4.4% | AC50 [1]: 4.11 µM [rising, single point]

Fc1cccc(/C=N/Nc2nc3ccccc3[nH]2)c1
AC50 [1]: 6.51 µM [rising, single point]

COc1cc(OC)cc(C(=O)Nc2ccc3nc4n(c(=O)c3c2)CCCCC4)c1
cell number change: -30.8% | AC50 [2]: 11.6 µM [falling, partial curve, poor fit] | AC50 [1]: 5.17 µM [falling, full curve]

CC(C)Sc1nc(N2CCOCC2)c2c(c1C#N)CC(C)(C)N(C)C2
cell number change: 57% | AC50 [2]: 3.66 µM [rising, partial curve]

COc1cccc(/C=N/NC(=O)CN(CCc2ccccc2)S(=O)(=O)c2ccc(NC(C)=O)cc2)c1
cell number change: 6.16%

CN(C(=O)c1ccccc1NC(=O)C(F)(F)F)c1ccccc1
cell number change: -17.6% | AC50 [1]: 0.92 µM [falling, full curve, poor fit]

Cc1cccc(OCCCC(=O)Nc2ccc(S(N)(=O)=O)cc2)c1
cell number change: 21.7%

COC(=O)C1C(O)=C(C=Nc2ccc(N)cc2)C(=O)CC1(C)C (stereo not drawn)
cell number change: 18.2% | AC50 [2]: 3.26 µM [falling, partial curve]

CC(=O)c1cccc(NC(=O)C2CCCCC2)c1
cell number change: 3.99%

S=c1[nH]ccn1Cc1ccccc1
cell number change: -23.3%

COC(=O)c1ccc(C2C(C(=O)c3ccco3)=C(O)C(=O)N2CC2CCCO2)cc1 (stereo not drawn)
cell number change: 16.7% | AC50 [1]: 0.103 µM [falling, full curve, poor fit]

Cc1ccccc1CNCCCSc1ncccn1
cell number change: 12.7% | AC50 [1]: 2.91 µM [falling, partial curve, poor fit]

Cc1ccc(/C=N/n2c(COc3ccccc3)n[nH]c2=S)s1
cell number change: -23.6% | AC50 [1]: 20.6 µM [falling, single point]

O=C(Nc1nccs1)c1sc2cc(Cl)ccc2c1Cl
cell number change: -14% | AC50 [1]: 0.82 µM [falling, full curve, poor fit]

CCCNC(=O)CN(Cc1ccccc1F)S(=O)(=O)c1ccc(C)cc1
cell number change: 23.7% | AC50 [1]: 29.1 µM [falling, single point]

OC(CNCc1ccccc1)Cn1ccc2ccccc21 (stereo not drawn)
cell number change: -13%

Cc1cccc(N(CC(=O)NC2CCCCC2)C(=O)c2csnn2)c1
cell number change: 26.9% | AC50 [2]: 0.731 µM [rising, full curve, poor fit] | AC50 [1]: 29.1 µM [falling, partial curve]

Cc1ccc(C)c(-n2c(CNC(=O)c3ccco3)nnc2SCC(=O)N2CCc3ccccc32)c1
cell number change: 85.1%

Cc1cc(C)cc(NC(=O)Cn2c(=O)oc3cc(S(=O)(=O)N4CCC(C)CC4)ccc32)c1
cell number change: -25.5% | AC50 [1]: 0.517 µM [falling, full curve, poor fit]

O=C(Cc1cccs1)Nc1ccc(-c2nc3ccccc3[nH]2)cc1
cell number change: -25.4% | AC50 [1]: 5.17 µM [falling, full curve]

CCn1c(=O)n(CC)c2cc(N3CCCC3)c(NC(=O)c3ccccc3)cc21
cell number change: -8.96% | AC50 [1]: 25.9 µM [falling, single point]

CNC1(c2nnnn2-c2ccccc2C)CCOC(C)(C)C1 (stereo not drawn)
cell number change: 2.34% | AC50 [1]: 29.1 µM [rising, single point]

CC(=O)Nc1ccc(/C(C)=N/NC(=O)c2ccc(CN3CCOCC3)cc2)cc1
cell number change: 10.3% | AC50 [2]: 2.59 µM [falling, partial curve] | AC50 [1]: 2.06 µM [falling, partial curve]

Cc1ccc(NC(=O)COC(=O)c2ccc(=O)n(Cc3ccccc3)n2)cc1F
cell number change: 22.5%

CN(C)CCCCCN(C)Cc1cc2ccccc2o1
cell number change: -9% | AC50 [1]: 0.651 µM [falling, single point]

COC(=O)c1sccc1-c1ccc(C(=O)Nc2cccnc2)o1
cell number change: -7.5% | AC50 [1]: 29.1 µM [rising, single point]

Cc1ccc(OCC(=O)N(C)CC(=O)Nc2ccc(N3CCOCC3)cc2)cc1
cell number change: -40.4% | AC50 [2]: 5.8 µM [falling, full curve] | AC50 [1]: 7.31 µM [falling, partial curve, poor fit]

O=C(CSc1cn[nH]n1)Nc1ccc(O)c(C(=O)O)c1
cell number change: -3.85% | AC50 [1]: 5.17 µM [rising, single point]

COc1ccc(-c2noc(CNC(=O)c3ccoc3C)n2)cc1OC
cell number change: -11.8%

N=c1sccn1CC(=O)Nc1ccc(SC(F)F)cc1
cell number change: -13.3%

Cc1ccc(C2NC(=NCc3ccccc3)Nc3nc(C)cc(=O)n32)cc1 (stereo not drawn)
cell number change: 24.8% | AC50 [2]: 1.46 µM [rising, full curve, poor fit]

CC(=O)c1ccccc1OCCOCCOc1ccccc1C(C)=O
cell number change: 1.69% | AC50 [1]: 9.2 µM [rising, partial curve]

CCOc1ccc(NC(=O)CC2S/C(=N/N=C3CCCCCC3)NC2=O)cc1 (stereo not drawn)
AC50 [1]: 10.3 µM [rising, partial curve]

CCOc1ccc(/C=N/NC(=O)Nc2ccccc2)cc1
cell number change: -34.4% | AC50 [2]: 13 µM [falling, partial curve] | AC50 [1]: 18.4 µM [falling, partial curve]

Cc1ccc(C(=O)CN(C(=O)c2ccc(Cl)c(Cl)c2)N2C(=O)C3CCCCC3C2=O)cc1C (stereo not drawn)
cell number change: 13.1%

CC(Oc1ccc(Cl)cc1)c1ccc(C#N)c(=O)[nH]1 (stereo not drawn)
cell number change: -5.63% | AC50 [2]: 0.092 µM [rising, full curve, poor fit]

O=C(COC(=O)c1cnccn1)c1ccc2c(c1)CCCC2
cell number change: -6.53% | AC50 [1]: 7.31 µM [rising, partial curve, poor fit]

CCC1CCC(N2CCN(c3ccccc3F)CC2)CC1 (stereo not drawn)
cell number change: 8.58%

Oc1ccccc1C1CCCCC1c1ccccc1 (stereo not drawn)
cell number change: -9.01% | AC50 [1]: 29.1 µM [falling, single point]

COc1ccc(C)cc1NCc1ccc([N+](=O)[O-])cc1
cell number change: 27.4% | AC50 [2]: 0.259 µM [rising, full curve, poor fit]

Cc1ccc2nc(N(CCCN(C)C)C(=O)c3ccc4ncsc4c3)sc2c1
cell number change: 23.9%

CCc1onc(C)c1C(=O)Nc1ccc(N2CCOCC2)cc1
cell number change: -66.7% | AC50 [2]: 25.9 µM [falling, partial curve, poor fit] | AC50 [1]: 25.9 µM [falling, partial curve, poor fit]

O=C(COC(=O)/C=C/c1ccc(C(F)(F)F)cc1)NCCC1=CCCCC1
cell number change: 0.647%

CC(=O)c1cccc(NC(=O)Cn2nc(-c3ccc(Cl)cc3)ccc2=O)c1
cell number change: 8.98%

O=C(O)c1ccc(N/N=C/c2cn(Cc3ccccc3F)c3ccccc23)cc1
cell number change: 11.7% | AC50 [1]: 29.1 µM [rising, single point]

COc1ccc(-n2cc(CN(C)C3CCOCC3)c(-c3cccc(F)c3)n2)cc1
cell number change: 18.1% | AC50 [1]: 16.4 µM [rising, single point]
